Reference: PMC4130541
Results are given in words; binding and its absence hold for the method and conditions named. For some of these results: Binding seen in cells or lysates may run through a third protein. Some binding calls cover weakened binding; strength is not graded here. For some of these results: Tags and fused reporters may be left off the sequences shown.

T1: Spo7-PtA (yeast) (UniProt P18410)
T1 sequence: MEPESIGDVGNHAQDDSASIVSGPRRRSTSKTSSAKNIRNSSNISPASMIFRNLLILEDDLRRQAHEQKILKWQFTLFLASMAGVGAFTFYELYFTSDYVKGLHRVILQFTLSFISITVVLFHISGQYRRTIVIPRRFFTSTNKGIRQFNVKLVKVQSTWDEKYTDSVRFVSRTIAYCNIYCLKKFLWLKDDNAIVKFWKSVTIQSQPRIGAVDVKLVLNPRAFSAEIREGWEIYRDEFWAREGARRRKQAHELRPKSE

T2: Dga1-PtA (yeast) (UniProt Q08650)
T2 sequence: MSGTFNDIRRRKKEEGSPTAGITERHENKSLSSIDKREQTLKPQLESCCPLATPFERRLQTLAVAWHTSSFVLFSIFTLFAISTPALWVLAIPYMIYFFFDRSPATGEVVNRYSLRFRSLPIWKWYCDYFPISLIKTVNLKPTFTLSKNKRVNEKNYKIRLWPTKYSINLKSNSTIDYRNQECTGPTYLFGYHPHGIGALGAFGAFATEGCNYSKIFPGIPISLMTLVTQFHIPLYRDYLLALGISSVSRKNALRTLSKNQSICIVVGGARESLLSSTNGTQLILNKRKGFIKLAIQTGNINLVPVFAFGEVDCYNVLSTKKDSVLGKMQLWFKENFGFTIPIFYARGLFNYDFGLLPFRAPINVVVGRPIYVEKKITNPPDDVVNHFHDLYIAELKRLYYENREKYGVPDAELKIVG

T3: Pah1-Cub-LexA (yeast) (UniProt P32567)
T3 sequence: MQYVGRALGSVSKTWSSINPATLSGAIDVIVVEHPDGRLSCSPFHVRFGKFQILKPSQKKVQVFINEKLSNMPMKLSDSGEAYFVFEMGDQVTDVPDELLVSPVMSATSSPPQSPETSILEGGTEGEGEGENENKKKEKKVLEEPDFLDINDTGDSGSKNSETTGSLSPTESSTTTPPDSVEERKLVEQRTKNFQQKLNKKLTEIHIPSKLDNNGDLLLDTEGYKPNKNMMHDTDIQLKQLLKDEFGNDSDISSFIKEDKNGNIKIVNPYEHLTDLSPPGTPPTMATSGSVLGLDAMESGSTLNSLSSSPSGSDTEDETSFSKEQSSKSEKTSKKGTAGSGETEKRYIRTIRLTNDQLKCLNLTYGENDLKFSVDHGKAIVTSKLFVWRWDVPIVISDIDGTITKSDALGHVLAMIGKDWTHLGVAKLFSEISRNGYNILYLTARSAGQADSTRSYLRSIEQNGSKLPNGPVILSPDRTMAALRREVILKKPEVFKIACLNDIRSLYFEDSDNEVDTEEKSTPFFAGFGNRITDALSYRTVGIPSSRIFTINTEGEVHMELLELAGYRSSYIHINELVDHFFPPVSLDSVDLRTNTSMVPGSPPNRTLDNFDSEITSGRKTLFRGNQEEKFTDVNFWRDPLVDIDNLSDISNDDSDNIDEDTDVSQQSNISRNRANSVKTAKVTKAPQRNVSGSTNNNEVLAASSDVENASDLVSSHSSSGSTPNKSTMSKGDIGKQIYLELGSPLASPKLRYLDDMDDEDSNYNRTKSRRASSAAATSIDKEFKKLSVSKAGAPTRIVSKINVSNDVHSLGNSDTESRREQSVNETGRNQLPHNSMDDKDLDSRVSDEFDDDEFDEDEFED

T4: Nem1-Cub-LexA (yeast) (UniProt P38757)
T4 sequence: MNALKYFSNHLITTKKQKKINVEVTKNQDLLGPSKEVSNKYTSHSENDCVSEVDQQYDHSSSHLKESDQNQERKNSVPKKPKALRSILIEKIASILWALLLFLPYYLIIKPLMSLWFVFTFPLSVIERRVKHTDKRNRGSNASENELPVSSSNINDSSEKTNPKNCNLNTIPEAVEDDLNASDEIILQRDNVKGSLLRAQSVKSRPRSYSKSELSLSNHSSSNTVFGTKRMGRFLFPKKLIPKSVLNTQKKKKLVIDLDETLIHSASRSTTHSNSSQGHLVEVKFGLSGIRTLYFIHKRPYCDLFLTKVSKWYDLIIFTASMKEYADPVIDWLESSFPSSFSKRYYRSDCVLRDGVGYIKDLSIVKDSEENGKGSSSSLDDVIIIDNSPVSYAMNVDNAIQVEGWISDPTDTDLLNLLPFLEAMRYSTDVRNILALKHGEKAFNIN

T5: Spo7-Cub-LexA (yeast) (UniProt P18410)
T5 sequence: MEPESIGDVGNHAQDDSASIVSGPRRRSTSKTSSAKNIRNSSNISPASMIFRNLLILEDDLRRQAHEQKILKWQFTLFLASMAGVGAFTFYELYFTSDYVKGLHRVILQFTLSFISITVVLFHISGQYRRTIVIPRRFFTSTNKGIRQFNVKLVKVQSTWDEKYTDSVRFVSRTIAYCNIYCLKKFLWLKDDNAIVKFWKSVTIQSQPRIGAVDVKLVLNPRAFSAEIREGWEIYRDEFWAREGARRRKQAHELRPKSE


Tests used:
Spo7-PtA (yeast) = target: T1, Spo7-PtA (yeast); assay: co-IP; PtA fusion captured on IgG sepharose from cleared yeast lysates (150 mM KCl, 20 mM Tris HCl pH 8.0, 5 mM MgCl2, 1% Triton X-100), 2 h at 4°C; anti-HA immunoblot; cells growing exponentially or treated with rapamycin (200 ng/ml); Spo7-PtA pull-down also in cells without Nem1
Dga1-PtA (yeast) = target: T2, Dga1-PtA (yeast); assay: as above
Pah1-Cub-LexA (yeast) = target: T3, Pah1-Cub-LexA (yeast); assay: two-hybrid; split-ubiquitin membrane-based yeast two-hybrid in strain NMY51; NubG fusions against Cub-LexA fusions; growth on plates lacking adenine and β-galactosidase activity (Miller units), exponentially growing cells
Nem1-Cub-LexA (yeast) = target: T4, Nem1-Cub-LexA (yeast); assay: as above
Spo7-Cub-LexA (yeast) = target: T5, Spo7-Cub-LexA (yeast); assay: as above

Binder | binding (Spo7-PtA (yeast)) | binding (Dga1-PtA (yeast)) | binding (Pah1-Cub-LexA (yeast)) | binding (Nem1-Cub-LexA (yeast)) | binding (Spo7-Cub-LexA (yeast))
Nem1-HA3 (enzyme, UniProt P38757 1-446) MNALKYFSNHLITTKKQKKINVEVTKNQDLLGPSKEVSNKYTSHSENDCVSEVDQQYDHSSSHLKESDQNQERKNSVPKKPKALRSILIEKIASILWALLLFLPYYLIIKPLMSLWFVFTFPLSVIERRVKHTDKRNRGSNASENELPVSSSNINDSSEKTNPKNCNLNTIPEAVEDDLNASDEIILQRDNVKGSLLRAQSVKSRPRSYSKSELSLSNHSSSNTVFGTKRMGRFLFPKKLIPKSVLNTQKKKKLVIDLDETLIHSASRSTTHSNSSQGHLVEVKFGLSGIRTLYFIHKRPYCDLFLTKVSKWYDLIIFTASMKEYADPVIDWLESSFPSSFSKRYYRSDCVLRDGVGYIKDLSIVKDSEENGKGSSSSLDDVIIIDNSPVSYAMNVDNAIQVEGWISDPTDTDLLNLLPFLEAMRYSTDVRNILALKHGEKAFNIN | binds | – | – | – | –
NubG-HA-Nem1 (enzyme, UniProt P38757 1-446) MNALKYFSNHLITTKKQKKINVEVTKNQDLLGPSKEVSNKYTSHSENDCVSEVDQQYDHSSSHLKESDQNQERKNSVPKKPKALRSILIEKIASILWALLLFLPYYLIIKPLMSLWFVFTFPLSVIERRVKHTDKRNRGSNASENELPVSSSNINDSSEKTNPKNCNLNTIPEAVEDDLNASDEIILQRDNVKGSLLRAQSVKSRPRSYSKSELSLSNHSSSNTVFGTKRMGRFLFPKKLIPKSVLNTQKKKKLVIDLDETLIHSASRSTTHSNSSQGHLVEVKFGLSGIRTLYFIHKRPYCDLFLTKVSKWYDLIIFTASMKEYADPVIDWLESSFPSSFSKRYYRSDCVLRDGVGYIKDLSIVKDSEENGKGSSSSLDDVIIIDNSPVSYAMNVDNAIQVEGWISDPTDTDLLNLLPFLEAMRYSTDVRNILALKHGEKAFNIN | – | – | no binding | – | binds

Results, then the binder that gave them:

binding (Spo7-PtA (yeast)) | binding (Dga1-PtA (yeast)) | binding (Pah1-Cub-LexA (yeast)) | binding (Nem1-Cub-LexA (yeast)) | binding (Spo7-Cub-LexA (yeast)) | Binder
binds | no binding | – | – | – | Pah1-HA3 (enzyme, UniProt P32567 1-862) MQYVGRALGSVSKTWSSINPATLSGAIDVIVVEHPDGRLSCSPFHVRFGKFQILKPSQKKVQVFINEKLSNMPMKLSDSGEAYFVFEMGDQVTDVPDELLVSPVMSATSSPPQSPETSILEGGTEGEGEGENENKKKEKKVLEEPDFLDINDTGDSGSKNSETTGSLSPTESSTTTPPDSVEERKLVEQRTKNFQQKLNKKLTEIHIPSKLDNNGDLLLDTEGYKPNKNMMHDTDIQLKQLLKDEFGNDSDISSFIKEDKNGNIKIVNPYEHLTDLSPPGTPPTMATSGSVLGLDAMESGSTLNSLSSSPSGSDTEDETSFSKEQSSKSEKTSKKGTAGSGETEKRYIRTIRLTNDQLKCLNLTYGENDLKFSVDHGKAIVTSKLFVWRWDVPIVISDIDGTITKSDALGHVLAMIGKDWTHLGVAKLFSEISRNGYNILYLTARSAGQADSTRSYLRSIEQNGSKLPNGPVILSPDRTMAALRREVILKKPEVFKIACLNDIRSLYFEDSDNEVDTEEKSTPFFAGFGNRITDALSYRTVGIPSSRIFTINTEGEVHMELLELAGYRSSYIHINELVDHFFPPVSLDSVDLRTNTSMVPGSPPNRTLDNFDSEITSGRKTLFRGNQEEKFTDVNFWRDPLVDIDNLSDISNDDSDNIDEDTDVSQQSNISRNRANSVKTAKVTKAPQRNVSGSTNNNEVLAASSDVENASDLVSSHSSSGSTPNKSTMSKGDIGKQIYLELGSPLASPKLRYLDDMDDEDSNYNRTKSRRASSAAATSIDKEFKKLSVSKAGAPTRIVSKINVSNDVHSLGNSDTESRREQSVNETGRNQLPHNSMDDKDLDSRVSDEFDDDEFDEDEFED
– | – | binds | binds | – | NubG-HA-Spo7 (protein, UniProt P18410 1-259) MEPESIGDVGNHAQDDSASIVSGPRRRSTSKTSSAKNIRNSSNISPASMIFRNLLILEDDLRRQAHEQKILKWQFTLFLASMAGVGAFTFYELYFTSDYVKGLHRVILQFTLSFISITVVLFHISGQYRRTIVIPRRFFTSTNKGIRQFNVKLVKVQSTWDEKYTDSVRFVSRTIAYCNIYCLKKFLWLKDDNAIVKFWKSVTIQSQPRIGAVDVKLVLNPRAFSAEIREGWEIYRDEFWAREGARRRKQAHELRPKSE
